This passage reports binding results from PMC8201617.

Protein sequences, listed by entry. Tags and fused reporters are not part of them. Lines headed by an entry give the natural chain unless they say otherwise; changes in a name come on top. Chains listed by the source or under a name are the forms on record and can include a tag or linker. Residues count along the entry.
UniProt P00519, residues 127-217: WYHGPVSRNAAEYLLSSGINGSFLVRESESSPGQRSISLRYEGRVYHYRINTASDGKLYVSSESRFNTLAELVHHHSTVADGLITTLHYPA
wild-type RUNX2 [RUNX2 (WT)] (Q13950-2, form named): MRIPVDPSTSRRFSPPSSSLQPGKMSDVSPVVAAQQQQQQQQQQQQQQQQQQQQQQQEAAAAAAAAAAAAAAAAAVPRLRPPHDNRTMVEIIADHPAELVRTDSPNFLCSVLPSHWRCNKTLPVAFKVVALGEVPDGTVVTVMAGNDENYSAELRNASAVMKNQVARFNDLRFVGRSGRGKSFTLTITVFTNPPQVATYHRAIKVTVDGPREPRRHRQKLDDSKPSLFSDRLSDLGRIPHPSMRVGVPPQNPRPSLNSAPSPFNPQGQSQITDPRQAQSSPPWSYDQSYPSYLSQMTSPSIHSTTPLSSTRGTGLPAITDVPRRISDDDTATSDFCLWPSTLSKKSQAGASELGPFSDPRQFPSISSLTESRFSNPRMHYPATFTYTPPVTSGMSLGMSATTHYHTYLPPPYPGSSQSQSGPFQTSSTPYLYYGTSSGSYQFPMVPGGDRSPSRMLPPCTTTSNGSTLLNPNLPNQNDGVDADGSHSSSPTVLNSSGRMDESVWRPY

This assay concerns the target GFP-ABL (SH2), truncated form of the ABL-SH2 domain (UniProt P00519). Description: co-IP; HEK293T cells co-transfected with RUNX2 with or without GFP-ABL (SH2); GFP-ABL (SH2) immune complexes probed with anti-RUNX2 or anti-GFP; NP-40 or RIPA lysis buffer, 4 °C, Dynabeads Protein A or G.

Results are given in words; binding and its absence hold for the method and conditions named. In cells and extracts the contact can be indirect. Some entries that bind do so weakly or less than the wild type.

Turning to “wild-type RUNX2 [RUNX2 (WT)] (from UniProt Q13950-2 1-507)”, the binding result is listed as “binds”.
